Measurements: US20130253037A1, “AURORA A KINASE EFFECTORS” (PURDUE RESEARCH FOUNDATION, priority 2010, published 2013)
Changes are numbered by the printed parent chain. At least one compound was matched to its structure with a doubt left.

What was measured:
[1] = molecular target: T1, AA-as7 kinase (Aurora A LI85V, L201G) (Mus musculus, UniProt P97477, L185V/L201G); test: In vitro kinase assay with AA-as7 and TPX2; format: biochemical, murine; conditions: phosphodonor as labelled
T1 construct: the Aurora A mutant is the double mutant Aurora A (AA-as7); 6-His; made in house; host or cells: Sf9 insect cells (baculovirus, Bac-to-Bac)
T1 sequence (P97477 1-395 L185V/L201G): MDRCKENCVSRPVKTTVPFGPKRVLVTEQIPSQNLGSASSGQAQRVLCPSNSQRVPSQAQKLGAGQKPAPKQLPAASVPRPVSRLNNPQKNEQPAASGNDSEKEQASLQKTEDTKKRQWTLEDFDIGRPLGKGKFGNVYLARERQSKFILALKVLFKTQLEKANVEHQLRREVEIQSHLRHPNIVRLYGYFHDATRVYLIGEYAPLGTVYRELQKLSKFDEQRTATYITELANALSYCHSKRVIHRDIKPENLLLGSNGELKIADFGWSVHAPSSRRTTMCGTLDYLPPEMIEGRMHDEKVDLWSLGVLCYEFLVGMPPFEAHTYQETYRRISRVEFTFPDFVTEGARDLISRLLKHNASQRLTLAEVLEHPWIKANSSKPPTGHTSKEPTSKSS
Procedure: (§1) For in vitro labeling, Aurora A/TPX2 complex (on beads) was pre-incubated with 10 μM cold ATP for 10 min to activate the kinase. The beads were washed twice with kinase buffer, and then subjected to kinase assay with 2-5 μg of recombinant protein (such as PHLDA) and 1 μCi of [γ-^32P] ATP. Reactions were terminated by adding SDS sample buffer, separated by SDS-PAGE gel, transferred to PVDF membrane and exposed to Biomax MS film. Aurora A kinase assays were conducted using 1 μCi of [γ-^32P] ATP and 3 μg of Aurora A substrate peptide in a final volume of 30 μl at 30° C. as reported before (Sun, et al, (2008a) Mol. Biol. Cell 19, 3052-3069).
(§2) IC50 values were determined by fitting the data to a sigmoidal dose response curve using GraphPad Prism 4.0 software. Km and Vmax values were derived from the assay described above using various concentrations of AA peptide substrate and ATP. Km and Vmax values were determined using GraphPad Prism 4.0 software.

wild-type Aurora A = molecular target: T2, wild-type Aurora A (Mus musculus, UniProt P97477); test: In vitro kinase assay with wild-type Aurora A and TPX2; format: biochemical, murine
T2 construct: 6-His; made in house; host or cells: Sf9 insect cells (baculovirus, Bac-to-Bac)
T2 sequence (P97477 1-395): T1 sequence (P97477 1-395 L185V/L201G) with V185L, G201L
T2 sequence (Q9ULW0 1-747 partner): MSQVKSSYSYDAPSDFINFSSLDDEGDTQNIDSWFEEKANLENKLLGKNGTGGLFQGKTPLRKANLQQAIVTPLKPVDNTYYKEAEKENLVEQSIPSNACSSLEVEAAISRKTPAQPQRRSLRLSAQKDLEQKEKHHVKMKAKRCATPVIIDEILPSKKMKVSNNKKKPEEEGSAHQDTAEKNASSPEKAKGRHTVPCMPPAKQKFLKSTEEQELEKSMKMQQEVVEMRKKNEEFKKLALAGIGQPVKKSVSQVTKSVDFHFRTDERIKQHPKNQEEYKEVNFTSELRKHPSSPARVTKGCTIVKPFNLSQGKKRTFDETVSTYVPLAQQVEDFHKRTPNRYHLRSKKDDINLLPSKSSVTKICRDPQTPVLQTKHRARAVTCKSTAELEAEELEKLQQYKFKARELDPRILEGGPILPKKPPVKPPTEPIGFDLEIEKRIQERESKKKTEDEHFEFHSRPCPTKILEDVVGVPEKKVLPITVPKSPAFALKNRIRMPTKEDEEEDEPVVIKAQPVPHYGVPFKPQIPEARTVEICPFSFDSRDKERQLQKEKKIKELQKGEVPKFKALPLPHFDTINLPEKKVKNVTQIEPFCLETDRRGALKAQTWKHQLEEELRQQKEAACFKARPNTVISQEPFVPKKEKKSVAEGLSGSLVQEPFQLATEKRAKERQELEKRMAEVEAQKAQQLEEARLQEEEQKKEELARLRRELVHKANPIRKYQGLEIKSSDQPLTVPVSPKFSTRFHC
Procedure: as §1, §2

| SMILES | Kcat/Km (catalytic efficiency) ([1]; unit printed only in b135) [M⁻¹ s⁻¹] | Kcat/Km (catalytic efficiency) (wild-type Aurora A) [M⁻¹ s⁻¹] | Kcat/Km (catalytic efficiency) ([1]; unit printed only in b135, listed as N^6-Phenethyl ATP) [M⁻¹ s⁻¹] |
| --- | --- | --- | --- |
| Nc1ncnc2c1ncn2[C@@H]1O[C@H](COP(=O)(O)OP(=O)(O)OP(=O)(O)O)[C@@H](O)[C@H]1O [ATP] | 3.07 | 1.93 |  |
| O=P(O)(O)OP(=O)(O)OP(=O)(O)OC[C@H]1O[C@@H](n2cnc3c(NCCc4ccccc4)ncnc32)[C@H](O)[C@@H]1O [N^6-phenethyl ATP, N^6-(phenethyl) ATP] | 19.3 |  | 19.3 |
